Results from PubChem BioAssay (NCATS).
Where “and” joins values, the source holds several entries; their conditions need not be identical. Identical values can stand only once. The list shows a part of the results. These are further read-outs of the screen, such as a control signal, another cell line or another target. No call is given for them. Most of these compounds were active or inconclusive in the main read-out, so they are no random draw. The note in brackets gives the kind of curve behind each potency; many fits are weak.

Legend:
[1] = Validation of Assay for Modulators of Lamin A Splicing (AID 1459); conditions: Lamin A splicing dual RFP/GFP fluorescence reporter, ratio
How it was run: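 Splicing correction read as GFP (500-530 nm) over DsRed2 (575-640 nm) object intensity after 48 h compound exposure of reporter HeLa S3 clones (600 cells/well, 2% FBS medium); ancitabine and cycloheximide titrations, 0.5% DMSO as vehicle.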

[2] = qHTS Validation Assay to Find Inhibitors of Chronic Active B-Cell Receptor Signaling (AID 485345); conditions: ABC-DLBCL cells, chronic BCR signaling reporter
How it was run: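 TMD8 ABC-DLBCL cells with dox-inducible green luciferase–IκBα fusion and red native luciferase; compounds 46 uM–3 nM, 4 h at 37C with doxycycline in 0.5% FBS IMDM. Green/red ratio normalized to basal and 10 uM MG-132.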

[3] = qHTS Assay for Lipid Storage Modulators (AID 1519); conditions: Drosophila S3 cells, BODIPY lipid droplet/cell ratio, laser cytometry, cells loaded with oleic acid
How it was run: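 Cells seeded at 5,000 per well were treated with compounds over a concentration series and loaded with oleic acid (400 uM, as added). Lipid droplet fluorescence (488 nm excitation, 500-530 nm channel) was read by laser-scanning cytometry and normalized to 20 uM Triacsin C.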

[4] = qHTS Assay for Modulators of Human Peripheral Myelin Protein 22 (PMP22) Expression/Activity (AID 1967); conditions: Cell-based PMP22 reporter, dual-color luciferase ratio
How it was run: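 Readout is the corrected green/red luminescence ratio after 24 h compound exposure, normalised to untreated cells (0%). Engineered MSC80 mouse Schwann cells express green luciferase from the mouse Pmp22 promoter and red luciferase from EF-alpha as internal control.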

[5] = A High-Content qHTS Against Drug Library for the Identification of Small Molecules that Inhibit DYT1 Early Onset Primary Dystonia-Associated Cell Pathology (AID 1645839); conditions: HEK293 Flp-In EGFP-delE TorsinA, punctate imaging, 48 h; measured here: cell count cytotoxicity
How it was run: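 Induced EGFP-delE TorsinA cells are imaged after 48 h of compound treatment. Punctate fusion-protein distribution gives the %pathology value, while nuclei counts flag toxicity. Wild-type EGFP-hTOR1A cells define the normal pattern.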

[6] = qHTS for identification of novel therapeutic agents for treatment of microphthalmiaassociated transcription factor (MiT) renal cell carcinoma (RCC) (AID 1963991); conditions: CellTiter-Glo, 48 h; for z-score: stronger effect = lower value
How it was run: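 Three TFE3-fusion RCC lines (UOK109, UOK124, UOK145), 500 cells/well in complete medium, were treated with MIPE 4.0 compounds for 48 hours at 37 C. Viability was by CellTiter-Glo luminescence, normalized to DMSO (100%) and empty wells (0%); curves fitted over 11 concentrations.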

[7] = measured here: CBR control luciferase (viability counter)
[8] = measured here: cell count channel max response
[9] = measured here: cell number channel AC50
[10] = measured here: lipid (BODIPY) channel AC50
[11] = measured here: lipid channel max response
[12] = measured here: red reporter channel AC50, EF-alpha promoter control reporter in MSC80 mouse Schwann cells

## CCCCCCCCCCCCCCCC(=O)OC(CC(=O)O)C[N+](C)(C)C (stereo unspecified)
[1]; measured here: GFP channel
  AC50: 35.5 µM [falling, single point]
[1]; measured here: RFP channel
  AC50: 22.4 µM [falling, partial curve, poor fit]
[2]; [7]
  AC50: 9.2 µM [rising, partial curve, poor fit]

## O=C(O)c1ccccc1Nc1cccc(OCc2ccc3ccccc3n2)c1
[1]; measured here: GFP channel
  AC50: 35.5 µM [rising, single point]
[3]; [8]
  max response: 27.4% and 39.3%
[3]; [9]
  AC50: 3.16 µM [rising, full curve] and 22.4 µM [falling, single point]
[3]; [10]
  AC50: 3.16 µM [rising, full curve] and 22.4 µM [falling, single point]
[3]; [11]
  max response: 30% and 38.5%
[2]; [7]
  AC50: 16.4 µM [falling, single point]

## O=C(O)Cc1c[nH]c2ccc(O)cc12
[1]; measured here: GFP channel
  AC50: 35.5 µM [falling, single point]
[1]; measured here: RFP channel
  AC50: 35.5 µM [falling, single point]
[4]; measured here: green reporter channel AC50, mouse Pmp22 promoter in mouse Schwann cells
  AC50: 42.6 µM [falling, partial curve]
[4]; [12]
  AC50: 42.6 µM [falling, partial curve]
[2]; measured here: CBG/CBR ratio read-out
  AC50: 16.4 µM [falling, single point]
[2]; [7]
  AC50: 20.6 µM [falling, single point]

## CC(=O)N[C@@H](Cc1c[nH]c2ccccc12)C(=O)OCc1cc(C(F)(F)F)cc(C(F)(F)F)c1
[1]; measured here: GFP channel
  AC50: 35.5 µM [rising, single point]
[3]; [8]
  max response: 81.1%
[3]; [9]
  AC50: 5.01 µM [rising, full curve]
[3]; [10]
  AC50: 5.01 µM [rising, full curve]
[3]; [11]
  max response: 124%

## NC(=O)NO
[1]; measured here: GFP channel
  AC50: 11.2 µM [falling, partial curve]
[3]; [8]
  max response: 17.3%
[3]; [9]
  AC50: 1.78 µM [falling, full curve, poor fit]
[3]; [10]
  AC50: 1.78 µM [falling, full curve, poor fit]
[3]; [11]
  max response: 16%
[4]; [12]
  AC50: 47.8 µM [falling, partial curve]
[5]
  AC50: 35.5 µM [falling, single point]
[6]; TFE3-RCC UOK109 viability, measured here: UOK109 Z-AUC
  z-score: -0.868
[6]; TFE3-RCC viability, measured here: UOK124 Z-AUC
  z-score: -0.218
[6]; TFE3-RCC viability, measured here: UOK124 cell viability
  AC50: 0.935 µM [falling, full curve]
[6]; TFE3-RCC viability, measured here: UOK145 Z-AUC
  z-score: -1.75
[6]; TFE3-RCC viability, measured here: UOK145 cell viability
  AC50: 0.833 µM [falling, full curve]

## NC(N)=NCc1cccc(I)c1
[1]; measured here: GFP channel
  AC50: 35.5 µM [falling, single point]
[1]; measured here: RFP channel
  AC50: 35.5 µM [falling, single point]
[4]; [12]
  AC50: 30.1 µM [falling, partial curve, poor fit]
[2]; [7]
  AC50: 14.6 µM [falling, single point]
